Experimental data: the supplement of paper PMC12889115
This is one part of the list. Values are raw readings; no control value is given beside them.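 Primary screen: polymyxin B was added at a level permeabilizing Salmonella outer membranes while sparing inner membranes. DMSO wells, both with and without polymyxin B, established maximum growth. Plate-to-plate variation meant each plate was ranked on its own, and the lowest-OD600 compounds were selected as hits.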

Test system: Salmonella enterica serovar Typhimurium SL1344
Assay: bacterial growth OD600 after 18 h with compound and polymyxin B; higher = more bacterial growth (less inhibition)
Conditions: 50 µM, Mueller-Hinton broth

SMILES: COc1ncccc1C(=O)NCC1Cc2cc(-c3nc(C)cnc3C)ccc2O1 (stereo unspecified)
- bacterial growth OD600 (polymyxin B 0.75 µg/mL): 0.928

SMILES: OCC1CCN(c2ncc3c(n2)CCCC3NCC2CCCC2)CC1 (stereo unspecified)
- bacterial growth OD600 (polymyxin B 0.75 µg/mL): 0.774

SMILES: CCCC(=O)N1CCC(N2CCCC(C(=O)NC3CC3)C2)CC1 (stereo unspecified)
- bacterial growth OD600 (polymyxin B 0.75 µg/mL): 0.891

SMILES: CSCC(=O)N1CCC(C2CCN(CCc3ccccc3)CC2)C1 (stereo unspecified)
- bacterial growth OD600 (polymyxin B 1 µg/mL): 0.957

SMILES: Cc1ccc(CN(C)C(=O)CC2(c3ccccc3)CC(=O)N(CCCOc3cccnc3)C2=O)cc1 (stereo unspecified)
- bacterial growth OD600 (polymyxin B 0.75 µg/mL): 0.002

SMILES: C=CCCC(=O)N(CCc1ccccc1)CC1CCCN(C)C1 (stereo unspecified)
- bacterial growth OD600 (polymyxin B 1 µg/mL): 0.961

SMILES: CCCNC(=O)N1CCC(N2CCCC(C(=O)NC3CC3)C2)CC1 (stereo unspecified)
- bacterial growth OD600 (polymyxin B 0.75 µg/mL): 0.864

SMILES: CC(=O)c1ccc(-c2cc(F)cc3c2OC(CNC(=O)[C@@H]2C[C@@H]4C=C[C@H]2C4)C3)s1 (stereo partly specified)
- bacterial growth OD600 (polymyxin B 0.75 µg/mL): 0.766

SMILES: c1cncc(COC2CCN(c3nc4nonc4nc3NC3CCCC3)CC2)c1
- bacterial growth OD600 (polymyxin B 1 µg/mL): 0.867

SMILES: Cc1cc(C(=O)N2CCC(C3CCN(Cc4cccnc4)CC3)C2)c(C)o1 (stereo unspecified)
- bacterial growth OD600 (polymyxin B 0.75 µg/mL): 0.839

SMILES: CSc1ccccc1C(=O)NCc1c(C)ncc2c1CCN(C(=O)CCC(=O)c1ccccc1)C2
- bacterial growth OD600 (polymyxin B 0.75 µg/mL): 0.827

SMILES: O=C1N(Cc2cccc(F)c2F)CCCC1(O)CNC1CCC1 (stereo unspecified)
- bacterial growth OD600 (polymyxin B 0.75 µg/mL): 0.978

SMILES: COCC(=O)Nc1cc(C(=O)NC(C)Cc2ccccn2)c2c(c1)ncn2Cc1ccc(F)cc1 (stereo unspecified)
- bacterial growth OD600 (polymyxin B 0.75 µg/mL): 0.82

SMILES: CC(C)=CCN1CCN(Cc2c(C)n(C)n(-c3ccccc3)c2=O)CC1CCO (stereo unspecified)
- bacterial growth OD600 (polymyxin B 1 µg/mL): 0.892

SMILES: CN(CCc1ccccn1)Cc1ccc2c(c1)CN(Cc1cccc3nccnc13)CCO2
- bacterial growth OD600 (polymyxin B 0.75 µg/mL): 0.916

SMILES: Cc1cc(-c2ccnc(-n3ncc(C(=O)N4CCN(c5ccc(O)cc5)CC4)c3C)n2)c(C)s1
- bacterial growth OD600 (polymyxin B 0.75 µg/mL): 0.731

SMILES: C/C=C(\C)CN1CCC(Oc2cc(Cl)ccc2C(=O)N2CCCCC2)CC1
- bacterial growth OD600 (polymyxin B 1 µg/mL): 0.871

SMILES: CCCNC(=O)NC1CCCc2nc(-c3cccnc3)ncc21 (stereo unspecified)
- bacterial growth OD600 (polymyxin B 1 µg/mL): 0.966

SMILES: CCCC(=O)NCc1cccnc1Oc1ccccc1OC
- bacterial growth OD600 (polymyxin B 0.75 µg/mL): 0.811

SMILES: CN(CC1COCCO1)C(=O)c1cc(COc2ccccc2)[nH]n1 (stereo unspecified)
- bacterial growth OD600 (polymyxin B 1 µg/mL): 0.892

SMILES: COc1ccc(NC2CCCN(C(=O)COc3ccc(C)cc3)C2)cc1 (stereo unspecified)
- bacterial growth OD600 (polymyxin B 1 µg/mL): 0.872

SMILES: CC(Cc1cccnc1)NC(=O)c1csc2nc(-c3ccc(Cl)cc3)cn12 (stereo unspecified)
- bacterial growth OD600 (polymyxin B 1 µg/mL): 0.048

SMILES: COCCNC(=O)c1ccc(OC2CCN(Cc3ccccc3OC)CC2)c(Cl)c1
- bacterial growth OD600 (polymyxin B 1 µg/mL): 0.034

SMILES: COC(=O)c1ccc(CNC2CCN(c3ccc(C(=O)N4CCc5ccccc5C4)cc3)CC2)cc1
- bacterial growth OD600 (polymyxin B 0.75 µg/mL): 0.761

SMILES: CCCN1CCC(N2CCCC(C(=O)Nc3ccc(-c4cccc(OC)c4)cc3)C2)CC1 (stereo unspecified)
- bacterial growth OD600 (polymyxin B 0.75 µg/mL): 0.55

SMILES: COCCNC1CCCN(c2nc(C)c3cc(F)ccc3n2)CC1 (stereo unspecified)
- bacterial growth OD600 (polymyxin B 0.75 µg/mL): 0.831

SMILES: CC1CCN(c2ccc(C(=O)N3CCCN(c4ncccn4)CC3)cn2)CC1
- bacterial growth OD600 (polymyxin B 0.75 µg/mL): 0.779

SMILES: Cc1cnccc1CNC(=O)C1(N(C)CCc2ccccc2)Cc2ccccc2C1
- bacterial growth OD600 (polymyxin B 0.75 µg/mL): 0

SMILES: CCCOC1CCCN(c2ccc(C(=O)N(CC)Cc3nccn3C)cn2)C1 (stereo unspecified)
- bacterial growth OD600 (polymyxin B 0.75 µg/mL): 0.801

SMILES: COc1ccc(CCN2C(=O)O[C@@H]3CN(c4nc(C)cc(C)n4)C[C@@H]32)cc1
- bacterial growth OD600 (polymyxin B 0.75 µg/mL): 0.823

SMILES: O=C(c1ccc(N2CCC(O)CC2)nc1)N1CCCC(c2ccccc2)CC1 (stereo unspecified)
- bacterial growth OD600 (polymyxin B 0.75 µg/mL): 0.743
